Common to all, as to conditions: yeast three-hybrid, YBZ-1, SC-Leu-His + 0.5 mM 3-AT, 4 days
Test [1] has as its target T1, PUM1 PUF domain R6-AWR N1043A + Y1044W + Q1047R (Homo sapiens) (UniProt Q14671).
T1 sequence: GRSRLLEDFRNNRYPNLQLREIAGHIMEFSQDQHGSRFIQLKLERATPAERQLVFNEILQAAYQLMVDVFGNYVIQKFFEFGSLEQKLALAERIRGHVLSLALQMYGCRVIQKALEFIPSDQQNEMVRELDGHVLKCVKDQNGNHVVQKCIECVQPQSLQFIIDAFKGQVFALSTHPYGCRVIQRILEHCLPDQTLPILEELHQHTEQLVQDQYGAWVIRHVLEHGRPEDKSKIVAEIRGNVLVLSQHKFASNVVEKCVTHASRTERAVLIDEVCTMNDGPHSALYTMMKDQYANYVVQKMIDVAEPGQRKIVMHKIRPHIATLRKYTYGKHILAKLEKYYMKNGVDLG

In test [2] the target is T2, PUM1 PUF domain R6-CWW N1043C + Y1044W + Q1047W (Homo sapiens) (UniProt Q14671).
T2 sequence: T1 sequence with A216C, R220W

Test [3] addresses T3, PUM1 PUF domain R6-FYQ N1043F (Homo sapiens) (UniProt Q14671).
T3 sequence: T1 sequence with A216F, W217Y, R220Q

Test [4] concerns the target T4, PUM1 PUF domain R6-GFR N1043G + Y1044F + Q1047R (Homo sapiens) (UniProt Q14671).
T4 sequence: T1 sequence with A216G, W217F

Test [5] addresses T5, PUM1 PUF domain R6-GHR N1043G + Y1044H + Q1047R (Homo sapiens) (UniProt Q14671).
T5 sequence: T1 sequence with A216G, W217H

Test [6] deals with T6, PUM1 PUF domain R6-MFR N1043M + Y1044F + Q1047R (Homo sapiens) (UniProt Q14671).
T6 sequence: T1 sequence with A216M, W217F

In test [7] the target is T7, PUM1 PUF domain R6-MYV N1043M + Q1047V (Homo sapiens) (UniProt Q14671).
T7 sequence: T1 sequence with A216M, W217Y, R220V

Test [8] deals with T8, PUM1 PUF domain R6-QYV N1043Q + Q1047V (Homo sapiens) (UniProt Q14671).
T8 sequence: T1 sequence with A216Q, W217Y, R220V

In test [9] the target is T9, PUM1 PUF domain R6-RHG N1043R + Y1044H + Q1047G (Homo sapiens) (UniProt Q14671).
T9 sequence: T1 sequence with A216R, W217H, R220G

Test [10] has as its target T10, PUM1 PUF domain R6-SFK N1043S + Y1044F + Q1047K (Homo sapiens) (UniProt Q14671).
T10 sequence: T1 sequence with A216S, W217F, R220K

The target of test [11] is T11, PUM1 PUF domain R6-WHG N1043W + Y1044H + Q1047G (Homo sapiens) (UniProt Q14671).
T11 sequence: T1 sequence with A216W, W217H, R220G

In test [12] the target is T12, PUM1 PUF domain R1-QFR R2-VFQ R3-THE R4-TFR R6-SWD R7-NPG S863Q + R864F + Q867R + N899V + Y900F + C935T + R936H + Q939E + N971T + H972F + Q975R + N1043S + Y1044W + Q1047D + S1079N + N1080P + E1083G (Homo sapiens) (UniProt Q14671).
T12 sequence: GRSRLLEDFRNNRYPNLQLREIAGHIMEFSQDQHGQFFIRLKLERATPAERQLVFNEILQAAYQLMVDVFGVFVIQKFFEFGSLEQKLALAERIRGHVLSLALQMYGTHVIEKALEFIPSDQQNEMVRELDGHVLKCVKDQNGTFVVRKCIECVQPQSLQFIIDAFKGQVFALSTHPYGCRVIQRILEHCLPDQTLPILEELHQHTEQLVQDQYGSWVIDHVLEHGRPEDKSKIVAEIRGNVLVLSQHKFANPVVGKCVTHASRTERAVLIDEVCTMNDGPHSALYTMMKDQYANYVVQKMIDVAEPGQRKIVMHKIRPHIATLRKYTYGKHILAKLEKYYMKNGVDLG

For test [13], the target named is T13, PUM1 PUF domain R1-QFR R3-THE R4-TFR S863Q + R864F + Q867R + C935T + R936H + Q939E + N971T + H972F + Q975R (Homo sapiens) (UniProt Q14671).
T13 sequence: T12 sequence with V72N, F73Y, S216N, W217Y, D220Q, N252S, P253N, G256E

The target in test [14] is T14, PUM1 PUF domain R1-QFR R6-SWD R7-NPG S863Q + R864F + Q867R + N1043S + Y1044W + Q1047D + S1079N + N1080P + E1083G (Homo sapiens) (UniProt Q14671).
T14 sequence: T12 sequence with V72N, F73Y, T108C, H109R, E112Q, T144N, F145H, R148Q

Test [15] addresses T15, PUM1 PUF domain R2-AKP N899A + Y900K + Q903P (Homo sapiens) (UniProt Q14671).
T15 sequence: T1 sequence with N72A, Y73K, Q76P, A216N, W217Y, R220Q

Test [16] addresses T16, PUM1 PUF domain R2-CGI N899C + Y900G + Q903I (UniProt Q14671).
T16 sequence: T1 sequence with N72C, Y73G, Q76I, A216N, W217Y, R220Q

Test [17] has as its target T17, PUM1 PUF domain R2-DFE N899D + Y900F + Q903E (UniProt Q14671).
T17 sequence: T1 sequence with N72D, Y73F, Q76E, A216N, W217Y, R220Q

Test [18] addresses T18, PUM1 PUF domain R2-DWE N899D + Y900W + Q903E (UniProt Q14671).
T18 sequence: T1 sequence with N72D, Y73W, Q76E, A216N, W217Y, R220Q

Test [19] deals with T19, PUM1 PUF domain R2-KFG N899K + Y900F + Q903G (UniProt Q14671).
T19 sequence: T1 sequence with N72K, Y73F, Q76G, A216N, W217Y, R220Q

Test [20] has as its target T20, PUM1 PUF domain R2-KLS N899K + Y900L + Q903S (UniProt Q14671).
T20 sequence: T1 sequence with N72K, Y73L, Q76S, A216N, W217Y, R220Q

Numbering of substitutions follows the chain as printed. The list shows a part of the results. For some assays here: At the low end of the ranking the order means little.

Turning to “GGCUAGAACUAGUGGAUCCCCCGGCGCCCGGCGGCUCGAGCCCGGGUAAGUGAAAAUAGUCUGCAUGCCGCCGGGCGCCAUGCCUGCAGGUCGACUCUAGAAAACAUG”, the binding signal (log2 enrichment (interaction score)) was -2.42 in test [1]; -3.02 in test [2]; -3.58 in test [3]; -6.07 in test [4]; -5.29 in test [5]; -3.41 in test [6]. Moreover, the binding signal (log2 enrichment (interaction score)) in [7] is -3.14; in test [8], -5.69; in [9] it was -3.08; in test [10] it was -4.86; in [11] it was -4.35.

For “GGCUAGAACUAGUGGAUCCCCCGGCGCCCGGCGGCUCGAGCCCGGGUAAGUUGACGACGUCUGCAUGCCGCCGGGCGCCAUGCCUGCAGGUCGACUCUAGAAAACAUG”, the binding signal (log2 enrichment (interaction score)) in test [12] is 4.6.

Turning to “GGCUAGAACUAGUGGAUCCCCCGGCGCCCGGCGGCUCGAGCCCGGGUAAGUGUACGUCGUCUGCAUGCCGCCGGGCGCCAUGCCUGCAGGUCGACUCUAGAAAACAUG”, the binding signal (log2 enrichment (interaction score)) in test [13] amounted to 1.57.

“GGCUAGAACUAGUGGAUCCCCCGGCGCCCGGCGGCUCGAGCCCGGGUAAGUUGAAAUCGUCUGCAUGCCGCCGGGCGCCAUGCCUGCAGGUCGACUCUAGAAAACAUG”: the binding signal (log2 enrichment (interaction score)) in test [14] is -4.7.

With “GGCUAGAACUAGUGGAUCCCCCGGCGCCCGGCGGCUCGAGCCCGGGUAAGUGUAAAAAGUCUGCAUGCCGCCGGGCGCCAUGCCUGCAGGUCGACUCUAGAAAACAUG”, the binding signal (log2 enrichment (interaction score)) in test [15] is -3.55; in [16] it was less than -5.99; in test [17], less than -8.46; in test [18] it was less than -8.83; in test [19], less than -6.39; in [20], less than -8.3.

Values taken from publication PMC8384837.
